Measured values reported in publication PMC3814334.

Molecular target: V5-tagged HCV core (strain H77, amino-acid residues 1-191) (Hepatitis C virus, strain H77)
Assay: co-IP; anti-V5 immunoprecipitation from HEK293T cells transfected with V5-tagged HCV proteins for 48 hrs; western blot for endogenous Nups and Kaps; some samples treated with Kap β3/IPO5-NLS peptides or control penetratin peptides, or transfected with cNLS-GFP, 12 hrs after transfection

Row | Binder | binding
1 | Nup107 (protein, UniProt P57740-1 1-925) MDRSGFGEISSPVIREAEVTRTARKQSAQKRVLLQASQDENFGNTTPRNQVIPRTPSSFRQPFTPTSRSLLRQPDISCILGTGGKSPRLTQSSGFFGNLSMVTNLDDSNWAAAFSSQRSGLFTNTEPHSITEDVTISAVMLREDDPGEAASMSMFSDFLQSFLKHSSSTVFDLVEEYENICGSQVNILSKIVSRATPGLQKFSKTASMLWLLQQEMVTWRLLASLYRDRIQSALEEESVFAVTAVNASEKTVVEALFQRDSLVRQSQLVVDWLESIAKDEIGEFSDNIEFYAKSVYWENTLHTLKQRQLTSYVGSVRPLVTELDPDAPIRQKMPLDDLDREDEVRLLKYLFTLIRAGMTEEAQRLCKRCGQAWRAATLEGWKLYHDPNVNGGTELEPVEGNPYRRIWKISCWRMAEDELFNRYERAIYAALSGNLKQLLPVCDTWEDTVWAYFRVMVDSLVEQEIQTSVATLDETEELPREYLGANWTLEKVFEELQATDKKRVLEENQEHYHIVQKFLILGDIDGLMDEFSKWLSKSRNNLPGHLLRFMTHLILFFRTLGLQTKEEVSIEVLKTYIQLLIREKHTNLIAFYTCHLPQDLAVAQYALFLESVTEFEQRHHCLELAKEADLDVATITKTVVENIRKKDNGEFSHHDLAPALDTGTTEEDRLKIDVIDWLVFDPAQRAEALKQGNAIMRKFLASKKHEAAKEVFVKIPQDSIAEIYNQCEEQGMESPLPAEDDNAIREHLCIRAYLEAHETFNEWFKHMNSVPQKPALIPQPTFTEKVAHEHKEKKYEMDFGIWKGHLDALTADVKEKMYNVLLFVDGGWMVDVREDAKEDHERTHQMVLLRKLCLPMLCFLLHTILHSTGQYQECLQLADMVSSERHKLYLVFSKEELRKLLQKLRESSLMLLDQGLDPLGYEIQL | binds
2 | Nup155 (protein, UniProt O75694-1 1-1391) MPSSLLGAAMPASTSAAALQEALENAGRLIDRQLQEDRMYPDLSELLMVSAPNNPTVSGMSDMDYPLQGPGLLSVPNLPEISSIRRVPLPPELVEQFGHMQCNCMMGVFPPISRAWLTIDSDIFMWNYEDGGDLAYFDGLSETILAVGLVKPKAGIFQPHVRHLLVLATPVDIVILGLSYANLQTGSGVLNDSLSGGMQLLPDPLYSLPTDNTYLLTITSTDNGRIFLAGKDGCLYEVAYQAEAGWFSQRCRKINHSKSSLSFLVPSLLQFTFSEDDPILQIAIDNSRNILYTRSEKGVIQVYDLGQDGQGMSRVASVSQNAIVSAAGNIARTIDRSVFKPIVQIAVIENSESLDCQLLAVTHAGVRLYFSTCPFRQPLARPNTLTLVHVRLPPGFSASSTVEKPSKVHRALYSKGILLMAASENEDNDILWCVNHDTFPFQKPMMETQMTAGVDGHSWALSAIDELKVDKIITPLNKDHIPITDSPVVVQQHMLPPKKFVLLSAQGSLMFHKLRPVDQLRHLLVSNVGGDGEEIERFFKLHQEDQACATCLILACSTAACDREVSAWATRAFFRYGGEAQMRFPTTLPPPSNVGPILGSPVYSSSPVPSGSPYPNPSFLGTPSHGIQPPAMSTPVCALGNPATQATNMSCVTGPEIVYSGKHNGICIYFSRIMGNIWDASLVVERIFKSGNREITAIESSVPCQLLESVLQELKGLQEFLDRNSQFAGGPLGNPNTTAKVQQRLIGFMRPENGNPQQMQQELQRKFHEAQLSEKISLQAIQQLVRKSYQALALWKLLCEHQFTIIVAELQKELQEQLKITTFKDLVIRDKELTGALIASLINCYIRDNAAVDGISLHLQDICPLLYSTDDAICSKANELLQRSRQVQNKTEKERMLRESLKEYQKISNQVDLSNVCAQYRQVRFYEGVVELSLTAAEKKDPQGLGLHFYKHGEPEEDIVGLQAFQERLNSYKCITDTLQELVNQSKAAPQSPSVPKKPGPPVLSSDPNMLSNEEAGHHFEQMLKLSQRSKDELFSIALYNWLIQVDLADKLLQVASPFLEPHLVRMAKVDQNRVRYMDLLWRYYEKNRSFSNAARVLSRLADMHSTEISLQQRLEYIARAILSAKSSTAISSIAADGEFLHELEEKMEVARIQLQIQETLQRQYSHHSSVQDAVSQLDSELMDITKLYGEFADPFKLAECKLAIIHCAGYSDPILVQTLWQDIIEKELSDSVTLSSSDRMHALSLKIVLLGKIYAGTPRFFPLDFIVQFLEQQVCTLNWDVGFVIQTMNEIGVPLPRLLEVYDQLFKSRDPFWNRMKKPLHLLDCIHVLLIRYVENPSQVLNCERRRFTNLCLDAVCGYLVELQSMSSSVAVQAITGNFKSLQAKLERLH | no binding

No constants are given. Whether binding was seen depends on the method and setting. Binding seen in cells or lysates may run through a third protein. A result given as binding can be weak or reduced; the word gives no strength.
